Laboratory results: PubChem BioAssay AID1508597 (Cure First, 2020)

Aim: 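Survival screen with siRNA in ovarian cancer cells derived from patients, with or without rucaparib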 (primary screen)
System: human ovarian carcinoma lines grown from tumours: OCI-P5x (papillary serous) and OCI-C5x (clear cell)
Knock-down reagent: siRNA pool against human genes, 1.25 pmol siRNA per well
Time to read-out: 72 h or 96 h, depending on the cell culture
Challenge: rucaparib 20 µM (about IC30) or vehicle, present until read-out
Measured: 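ATP luminescence measured at 72 or 96 h according to the culture, then normalised and expressed as percent viability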
Reading the numbers: viability, normalised: higher = more viable cells remaining
Active means: 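a well counts as a hit if its normalised viability is under 80 percent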
Meaning of the calls: active = viability under 80%; inactive = viability 80% or more
Shown is a random part of about 2,100 reagents tested. 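Calls flag viability under 80% in either arm, not effects specific to rucaparib; the reference for percent is not stated.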 Some reagents were tested in more than one well and are listed for each. Not stated in the record: the 100% reference.

no.	gene	rucaparib or vehicle	cell line	technical replicate	viability, normalised (%)	activity call
1	NDC80 (GeneID 10403)	Rucaparib	OCI-C5x (clear cell)	1	56.1	active
2	NDC80 (GeneID 10403)	Rucaparib	OCI-C5x (clear cell)	2	42.6	active
3	NDC80 (GeneID 10403)	Rucaparib	OCI-C5x (clear cell)	3	55.1	active
4	NDC80 (GeneID 10403)	Rucaparib	OCI-P5x (serous)	1	57.5	active
5	NDC80 (GeneID 10403)	Rucaparib	OCI-P5x (serous)	2	73.2	active
6	NDC80 (GeneID 10403)	Rucaparib	OCI-P5x (serous)	3	58.1	active
7	NDC80 (GeneID 10403)	Vehicle	OCI-C5x (clear cell)	1	55.5	active
8	NDC80 (GeneID 10403)	Vehicle	OCI-C5x (clear cell)	2	46.5	active
9	NDC80 (GeneID 10403)	Vehicle	OCI-C5x (clear cell)	3	34.1	active
10	NDC80 (GeneID 10403)	Vehicle	OCI-P5x (serous)	1	33	active
11	NDC80 (GeneID 10403)	Vehicle	OCI-P5x (serous)	2	37.4	active
12	NDC80 (GeneID 10403)	Vehicle	OCI-P5x (serous)	3	37	active
13	TDP1 (GeneID 55775)	Rucaparib	OCI-C5x (clear cell)	1	52.2	active
14	TDP1 (GeneID 55775)	Rucaparib	OCI-C5x (clear cell)	1	89.9	inactive
15	TDP1 (GeneID 55775)	Rucaparib	OCI-C5x (clear cell)	2	74.4	active
16	TDP1 (GeneID 55775)	Rucaparib	OCI-C5x (clear cell)	2	44	active
17	TDP1 (GeneID 55775)	Rucaparib	OCI-C5x (clear cell)	3	51.9	active
18	TDP1 (GeneID 55775)	Rucaparib	OCI-C5x (clear cell)	3	83.5	inactive
19	TDP1 (GeneID 55775)	Rucaparib	OCI-P5x (serous)	1	108	inactive
20	TDP1 (GeneID 55775)	Rucaparib	OCI-P5x (serous)	1	55.9	active
21	TDP1 (GeneID 55775)	Rucaparib	OCI-P5x (serous)	2	130	inactive
22	TDP1 (GeneID 55775)	Rucaparib	OCI-P5x (serous)	2	59.6	active
23	TDP1 (GeneID 55775)	Rucaparib	OCI-P5x (serous)	3	131	inactive
24	TDP1 (GeneID 55775)	Rucaparib	OCI-P5x (serous)	3	50.3	active
25	TDP1 (GeneID 55775)	Vehicle	OCI-C5x (clear cell)	1	46.3	active
26	TDP1 (GeneID 55775)	Vehicle	OCI-C5x (clear cell)	1	73.7	active
27	TDP1 (GeneID 55775)	Vehicle	OCI-C5x (clear cell)	2	53.6	active
28	TDP1 (GeneID 55775)	Vehicle	OCI-C5x (clear cell)	2	102	inactive
29	TDP1 (GeneID 55775)	Vehicle	OCI-C5x (clear cell)	3	40.9	active
30	TDP1 (GeneID 55775)	Vehicle	OCI-C5x (clear cell)	3	72.1	active
31	TDP1 (GeneID 55775)	Vehicle	OCI-P5x (serous)	1	75.8	active
32	TDP1 (GeneID 55775)	Vehicle	OCI-P5x (serous)	1	114	inactive
33	TDP1 (GeneID 55775)	Vehicle	OCI-P5x (serous)	2	129	inactive
34	TDP1 (GeneID 55775)	Vehicle	OCI-P5x (serous)	2	64.3	active
35	TDP1 (GeneID 55775)	Vehicle	OCI-P5x (serous)	3	76.5	active
36	TDP1 (GeneID 55775)	Vehicle	OCI-P5x (serous)	3	124	inactive
37	WDR77 (GeneID 79084)	Rucaparib	OCI-C5x (clear cell)	1	55.1	active
38	WDR77 (GeneID 79084)	Rucaparib	OCI-C5x (clear cell)	2	39.6	active
39	WDR77 (GeneID 79084)	Rucaparib	OCI-C5x (clear cell)	3	41.3	active
40	WDR77 (GeneID 79084)	Rucaparib	OCI-P5x (serous)	1	35.9	active
41	WDR77 (GeneID 79084)	Rucaparib	OCI-P5x (serous)	2	49.1	active
42	WDR77 (GeneID 79084)	Rucaparib	OCI-P5x (serous)	3	54.1	active
43	WDR77 (GeneID 79084)	Vehicle	OCI-C5x (clear cell)	1	28.3	active
44	WDR77 (GeneID 79084)	Vehicle	OCI-C5x (clear cell)	2	42.6	active
45	WDR77 (GeneID 79084)	Vehicle	OCI-C5x (clear cell)	3	37.9	active
46	WDR77 (GeneID 79084)	Vehicle	OCI-P5x (serous)	1	46.4	active
47	WDR77 (GeneID 79084)	Vehicle	OCI-P5x (serous)	2	46.2	active
48	WDR77 (GeneID 79084)	Vehicle	OCI-P5x (serous)	3	39.3	active
49	SLC1A3 (GeneID 6507)	Rucaparib	OCI-C5x (clear cell)	1	41.9	active
50	SLC1A3 (GeneID 6507)	Rucaparib	OCI-C5x (clear cell)	2	45.4	active
51	SLC1A3 (GeneID 6507)	Rucaparib	OCI-C5x (clear cell)	3	49.4	active
52	SLC1A3 (GeneID 6507)	Rucaparib	OCI-P5x (serous)	1	48.2	active
53	SLC1A3 (GeneID 6507)	Rucaparib	OCI-P5x (serous)	2	50.2	active
54	SLC1A3 (GeneID 6507)	Rucaparib	OCI-P5x (serous)	3	57.7	active
55	SLC1A3 (GeneID 6507)	Vehicle	OCI-C5x (clear cell)	1	38.8	active
56	SLC1A3 (GeneID 6507)	Vehicle	OCI-C5x (clear cell)	2	30.2	active
57	SLC1A3 (GeneID 6507)	Vehicle	OCI-C5x (clear cell)	3	43.1	active
58	SLC1A3 (GeneID 6507)	Vehicle	OCI-P5x (serous)	1	54.6	active
59	SLC1A3 (GeneID 6507)	Vehicle	OCI-P5x (serous)	2	69.8	active
60	SLC1A3 (GeneID 6507)	Vehicle	OCI-P5x (serous)	3	63.3	active
61	CLP1 (GeneID 10978)	Rucaparib	OCI-C5x (clear cell)	1	42.7	active
62	CLP1 (GeneID 10978)	Rucaparib	OCI-C5x (clear cell)	2	50.3	active
63	CLP1 (GeneID 10978)	Rucaparib	OCI-C5x (clear cell)	3	35.1	active
64	CLP1 (GeneID 10978)	Rucaparib	OCI-P5x (serous)	1	80.1	inactive
65	CLP1 (GeneID 10978)	Rucaparib	OCI-P5x (serous)	2	94.4	inactive
66	CLP1 (GeneID 10978)	Rucaparib	OCI-P5x (serous)	3	74.4	active
67	CLP1 (GeneID 10978)	Vehicle	OCI-C5x (clear cell)	1	33.4	active
68	CLP1 (GeneID 10978)	Vehicle	OCI-C5x (clear cell)	2	50.7	active
69	CLP1 (GeneID 10978)	Vehicle	OCI-C5x (clear cell)	3	35.2	active
70	CLP1 (GeneID 10978)	Vehicle	OCI-P5x (serous)	1	71.4	active
71	CLP1 (GeneID 10978)	Vehicle	OCI-P5x (serous)	2	81.3	inactive
72	CLP1 (GeneID 10978)	Vehicle	OCI-P5x (serous)	3	74.2	active
73	KDM5A (GeneID 5927)	Rucaparib	OCI-C5x (clear cell)	1	50.4	active
74	KDM5A (GeneID 5927)	Rucaparib	OCI-C5x (clear cell)	2	62.7	active
75	KDM5A (GeneID 5927)	Rucaparib	OCI-C5x (clear cell)	3	52.6	active
76	KDM5A (GeneID 5927)	Rucaparib	OCI-P5x (serous)	1	49	active
77	KDM5A (GeneID 5927)	Rucaparib	OCI-P5x (serous)	2	41.5	active
78	KDM5A (GeneID 5927)	Rucaparib	OCI-P5x (serous)	3	48.5	active
79	KDM5A (GeneID 5927)	Vehicle	OCI-C5x (clear cell)	1	40.2	active
80	KDM5A (GeneID 5927)	Vehicle	OCI-C5x (clear cell)	2	43.6	active
81	KDM5A (GeneID 5927)	Vehicle	OCI-C5x (clear cell)	3	34.5	active
82	KDM5A (GeneID 5927)	Vehicle	OCI-P5x (serous)	1	59.6	active
83	KDM5A (GeneID 5927)	Vehicle	OCI-P5x (serous)	2	54.2	active
84	KDM5A (GeneID 5927)	Vehicle	OCI-P5x (serous)	3	59.6	active

Reprinted from above for reference:
no.	gene	rucaparib or vehicle	cell line	technical replicate	viability, normalised (%)	activity call
56	SLC1A3 (GeneID 6507)	Vehicle	OCI-C5x (clear cell)	2	30.2	active
57	SLC1A3 (GeneID 6507)	Vehicle	OCI-C5x (clear cell)	3	43.1	active
58	SLC1A3 (GeneID 6507)	Vehicle	OCI-P5x (serous)	1	54.6	active
59	SLC1A3 (GeneID 6507)	Vehicle	OCI-P5x (serous)	2	69.8	active
60	SLC1A3 (GeneID 6507)	Vehicle	OCI-P5x (serous)	3	63.3	active
61	CLP1 (GeneID 10978)	Rucaparib	OCI-C5x (clear cell)	1	42.7	active
62	CLP1 (GeneID 10978)	Rucaparib	OCI-C5x (clear cell)	2	50.3	active
